B1: Pfu polymerase: whole size Pfu polymerase (protein, UniProt P61875 1-775, looked up)
chain: MILDVDYITEEGKPVIRLFKKENGKFKIEHDRTFRPYIYALLRDDSKIEEVKKITGERHGKIVRIVDVEKVEKKFLGKPITVWKLYLEHPQDVPTIREKVREHPAVVDIFEYDIPFAKRYLIDKGLIPMEGEEELKILAFDIETLYHEGEEFGKGPIIMISYADENEAKVITWKNIDLPYVEVVSSEREMIKRFLRIIREKDPDIIVTYNGDSFDFPYLAKRAEKLGIKLTIGRDGSEPKMQRIGDMTAVEVKGRIHFDLYHVITRTINLPTYTLEAVYEAIFGKPKEKVYADEIAKAWESGENLERVAKYSMEDAKATYELGKEFLPMEIQLSRLVGQPLWDVSRSSTGNLVEWFLLRKAYERNEVAPNKPSEEEYQRRLRESYTGGFVKEPEKGLWENIVYLDFRALYPSIIITHNVSPDTLNLEGCKNYDIAPQVGHKFCKDIPGFIPSLLGHLLEERQKIKTKMKETQDPIEKILLDYRQKAIKLLANSFYGYYGYAKARWYCKECAESVTAWGRKYIELVWKELEEKFGFKVLYIDTDGLYATIPGGESEEIKKKALEFVKYINSKLPGLLELEYEGFYKRGFFVTKKRYAVIDEEGKVITRGLEIVRRDWSEIAKETQARVLETILKHGDVEEAVRIVKEVIQKLANYEIPPEKLAIYEQITRPLHEYKAIGPHVAVAKKLAAKGVKIKPGMVIGYIVLRGDGPISNRAILAEEYDPKKHKYDAEYYIENQVLPAVLRILEGFGYRKEDLRYQKTRQVGLTSWLNIKKS
modifications: full-length

System: DNA duplex of FIG. 16 (PTJ)
Experiment: Initial rates of primer extension reactions in salts (inhibition of polymerases and chimeras by NaCl, KCl, K-Glu)
Type: biochemical
Conditions: for α (K-Glu), cooperativity parameter: inhibition by K-Glu, entries with * analysed by Eq. 3; for α (NaCl), cooperativity parameter: inhibition by NaCl
Protocol: The polymerase activities of the four chimeras were tested by measuring initial rates of primer extension reactions. The reactions were carried out at low concentrations of substrate, when the initial rates were proportional both to total protein and PTJ concentrations. When [PTJ] is much less than Kmapp, the initial rate is determined as in Equation 1: v1=kapp/Kmapp*[Et]*[PTJ]1 Eq. 1 • where Kmapp and kapp are apparent Michaelis and catalytic constants, respectively.
The concentrations of sodium chloride (NaCl), potassium chloride (KCl) and potassium glutamate (K-Glu) were varied to assess inhibition of the Stoffel fragment and KlenTaq, and the four chimeras by salts, and to estimate the effects of the HhH domains.
Experimental values of initial polymerization rates were analyzed by nonlinear regression analysis using Equation 2: [formula] where v and v0 are initial primer extension rates with and without salt, respectively, Ki is the apparent inhibition constant; and α is the cooperativity parameter.
In Table 2, to take into account the activation of Pfu polymerase and the PfuC2 hybrid by KGlu (data entries marked with an asterisk (*), the experimental values of initial polymerization rates were analyzed by nonlinear regression using the Equation 3: [formula]
where v and v0 are initial primer extension rates with and without salt, respectively; Ki is an apparent inhibition constant, α is a parameter of cooperativity, β and γ are parameters of activation. Since γ≅2, it is likely that two ions of Glu^− bind to the Pfu polymerase catalytic domain without inhibiting the polymerase activity.

Row | Molecule | α (K-Glu), cooperativity parameter | α (NaCl), cooperativity parameter
1 | Taq Polymerase: DNA polymerase from Thermus aquaticus [reference compound] | 4.45 ± 0.3 | 3.24 ± 0.5
2 | B1 | 3.24 ± 0.2 | 2.39 ± 0.1

Reference: patent US20060068386A1, “Complete genome and protein sequence of the hyperthermophile methanopyrus kandleri av19 and monophyly of archael methanogens and methods of use thereof” (priority 2002, published 2006)
